At least one result comes from cells or an extract, where the contact may be indirect. For part of these data: A negative result means that nothing was seen under these conditions. For part of these data: For at least one entry, the source does not settle the construct or the ends of the probe.
Experiments:
Test in all cases: binding assay
[1] = tested on: MUC-1 (on MCF-7-derived small extracellular vesicles) (Homo sapiens); settings: imprinted polymer sensor; significant fluorescence quenching with MCF-7 sEVs; protein on the cell surface; protein details: displayed on MCF-7 sEVs …; single-stranded DNA
[2] = tested on: healthy human serum-derived small extracellular vesicles (MUC-1 not expressed) (Homo sapiens); settings: specificity control; no response with healthy serum sEVs lacking MUC-1; protein on the cell surface; protein details: EXOP-500A-1; single-stranded DNA
[3] = target: CD63 (on PC3-derived small extracellular vesicles) (Homo sapiens) (UniProt P08962); settings: imprinted polymer sensor; only slight nonspecific quenching with PC3 sEVs; protein on the cell surface; single-stranded DNA

Chains of the proteins cited; added tags and fusions are not shown. A line that says so, or that is headed by a name, gives the form on record, which may keep a tag or linker. Residues count along the entry.
UniProt P08962, 2-238: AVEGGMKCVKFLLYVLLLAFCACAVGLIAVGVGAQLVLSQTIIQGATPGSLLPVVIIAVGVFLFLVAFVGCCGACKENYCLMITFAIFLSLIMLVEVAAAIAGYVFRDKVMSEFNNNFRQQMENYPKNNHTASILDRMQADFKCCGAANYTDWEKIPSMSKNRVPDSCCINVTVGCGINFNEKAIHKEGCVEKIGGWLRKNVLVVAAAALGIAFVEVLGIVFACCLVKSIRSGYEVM
MUC-1 (on MCF-7-derived small extracellular vesicles) (Homo sapiens), one chain, as listed by the source, chain 2 of 2: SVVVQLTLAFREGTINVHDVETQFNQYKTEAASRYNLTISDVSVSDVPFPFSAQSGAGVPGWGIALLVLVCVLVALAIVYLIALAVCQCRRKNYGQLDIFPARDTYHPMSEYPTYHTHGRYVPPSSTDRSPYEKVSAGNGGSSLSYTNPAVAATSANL
MUC-1 (on MCF-7-derived small extracellular vesicles) (Homo sapiens), one chain, as listed by the source, chain 1 of 2: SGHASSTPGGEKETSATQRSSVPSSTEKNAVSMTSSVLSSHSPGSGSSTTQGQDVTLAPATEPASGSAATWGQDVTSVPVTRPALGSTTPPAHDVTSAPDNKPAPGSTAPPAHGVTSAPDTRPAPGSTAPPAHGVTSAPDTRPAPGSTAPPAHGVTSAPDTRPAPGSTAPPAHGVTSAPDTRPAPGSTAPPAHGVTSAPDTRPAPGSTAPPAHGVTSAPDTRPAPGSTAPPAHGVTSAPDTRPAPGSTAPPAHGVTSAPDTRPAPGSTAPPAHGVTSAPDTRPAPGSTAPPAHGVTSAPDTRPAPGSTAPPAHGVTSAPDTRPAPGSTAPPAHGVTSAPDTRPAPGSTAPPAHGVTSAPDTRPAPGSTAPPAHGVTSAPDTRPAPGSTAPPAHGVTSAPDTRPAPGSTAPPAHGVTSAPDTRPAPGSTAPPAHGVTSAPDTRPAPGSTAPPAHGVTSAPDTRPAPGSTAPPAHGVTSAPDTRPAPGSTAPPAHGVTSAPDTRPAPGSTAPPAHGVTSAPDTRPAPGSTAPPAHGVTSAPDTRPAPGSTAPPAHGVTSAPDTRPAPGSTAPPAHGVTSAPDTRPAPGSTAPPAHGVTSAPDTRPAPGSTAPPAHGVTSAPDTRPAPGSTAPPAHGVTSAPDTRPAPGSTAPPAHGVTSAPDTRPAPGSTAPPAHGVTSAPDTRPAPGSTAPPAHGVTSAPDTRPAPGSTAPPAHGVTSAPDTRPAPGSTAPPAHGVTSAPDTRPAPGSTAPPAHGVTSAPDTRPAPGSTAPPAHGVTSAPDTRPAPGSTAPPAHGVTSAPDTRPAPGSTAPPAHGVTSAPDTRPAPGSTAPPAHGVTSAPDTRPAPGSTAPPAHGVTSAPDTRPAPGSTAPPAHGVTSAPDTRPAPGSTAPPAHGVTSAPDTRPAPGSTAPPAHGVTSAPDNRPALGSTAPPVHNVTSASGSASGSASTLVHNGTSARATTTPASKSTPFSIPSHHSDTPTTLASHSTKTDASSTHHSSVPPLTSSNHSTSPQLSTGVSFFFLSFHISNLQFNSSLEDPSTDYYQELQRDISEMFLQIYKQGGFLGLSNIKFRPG

Sequence | binding result [1] | binding result [2] | binding result [3]
CACAAATCTGTCGCTGAGTAGCAGTTGATCCTTTGGATACCCTGG [MUC-1 DNA aptamer with ODN2 extension] | binds | no binding | –
CACAAATCTGTCGCTGAGTATGTGCGGCGAAATATTATAGCTACCGCAATTA [random polynucleotide with ODN2 extension] | – | – | no binding
